In the supplement of paper PMC6078165:

System: BT20
Experiment: relative JC-1 red fluorescence (viability) vs pre-drug, coculture with fibroblast (fraction); higher = more viable cancer cells
Experimental: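 JC-1 labelled TNBC cells cocultured 1:1 (1,500 cells each) with CellTrace Violet stained primary or stromal fibroblasts in 384-well plates in FluoroBrite medium, treated with one of 42 anticancer drugs at 0.1, 1, 10 or 100 uM. JC-1 red fluorescence (mitochondrial integrity in cancer cells only) was read by plate reader every 8 h for 72 h. Values are normalised to each well's pre-drug value. The stock of one drug was tenfold lower, so its dose labels may be too high.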

O=c1[nH]cc(F)c(=O)[nH]1 [Fluorouracil]
relative JC-1 red fluorescence
Details | 8 h | 16 h | 24 h | 32 h | 40 h | 48 h | 56 h | 64 h | 72 h
10 µM, coculture fibroblast: C12385 | 0.909 | 0.832 | 0.774 | 0.716 | 0.663 | 0.621 | 0.601 | 0.576 | 0.554
10 µM, coculture fibroblast: H6013 | 0.9853 | 0.889 | 0.8479 | 0.8246 | 0.793 | 0.774 | 0.771 | 0.757 | 0.745
10 µM, coculture fibroblast: H6019 | 0.873 | 0.824 | 0.836 | 0.801 | 0.785 | 0.78 | 0.764 | 0.755 | 0.742
10 µM, coculture fibroblast: H6076 | 0.7454 | 0.9405 | 0.8751 | 0.84935 | 0.815 | 0.791 | 0.775 | 0.762 | 0.748
10 µM, coculture fibroblast: H6231 | 0.773 | 0.96 | 0.869 | 0.824 | 0.787 | 0.747 | 0.708 | 0.68 | 0.644
10 µM, coculture fibroblast: HADF | 0.865 | 0.927 | 0.874 | 0.847 | 0.782 | 0.732 | 0.694 | 0.666 | 0.622
10 µM, coculture fibroblast: HCFa | 0.9592 | 0.832 | 0.7657 | 0.7165 | 0.664 | 0.6292 | 0.599 | 0.579 | 0.545
10 µM, coculture fibroblast: HCPF | 0.913 | 0.947 | 0.875 | 0.831 | 0.78109 | 0.7396 | 0.699 | 0.678 | 0.632
10 µM, coculture fibroblast: HHSteC | 0.965 | 0.904 | 0.883 | 0.817 | 0.764 | 0.734 | 0.704 | 0.691 | 0.658
10 µM, coculture fibroblast: HMF | 0.9 | 0.872 | 0.765 | 0.704 | 0.6408 | 0.595 | 0.55 | 0.515 | 0.475
10 µM, coculture fibroblast: HPFa | 0.9323 | 0.85261 | 0.822 | 0.743 | 0.7074 | 0.6521 | 0.6319 | 0.60739 | 0.5725
10 µM, coculture fibroblast: HUF | 0.896 | 0.789 | 0.763 | 0.6816 | 0.632 | 0.593 | 0.5722 | 0.566 | 0.542
10 µM, coculture fibroblast: Hs5 | 0.812 | 0.93 | 0.868 | 0.833 | 0.788 | 0.753 | 0.719 | 0.689 | 0.679
10 µM, coculture fibroblast: Hs27A | 0.747 | 0.757 | 0.912 | 0.906 | 0.8494 | 0.837 | 0.8078 | 0.7907 | 0.7376
10 µM, coculture fibroblast: Hs343T | 0.85272 | 0.9241 | 0.7811 | 0.716 | 0.654 | 0.5982 | 0.536 | 0.508 | 0.457
10 µM, coculture fibroblast: WS1 | 0.88 | 0.806 | 0.731 | 0.66 | 0.6 | 0.569 | 0.539 | 0.504 | 0.483
100 µM, coculture fibroblast: C12385 | 0.87 | 0.811 | 0.801 | 0.746 | 0.691 | 0.665 | 0.63 | 0.61 | 0.591
100 µM, coculture fibroblast: H6013 | 0.925 | 0.882 | 0.834 | 0.8003 | 0.768 | 0.756 | 0.752 | 0.727 | 0.707
100 µM, coculture fibroblast: H6019 | 0.8431 | 0.801 | 0.78562 | 0.723 | 0.68 | 0.6598 | 0.631 | 0.60824 | 0.5945
100 µM, coculture fibroblast: H6076 | 0.924 | 0.815 | 0.765 | 0.7433 | 0.735 | 0.7251 | 0.727 | 0.731 | 0.731
100 µM, coculture fibroblast: H6231 | 0.843 | 0.881 | 0.772 | 0.727 | 0.682 | 0.64 | 0.613 | 0.585 | 0.564
100 µM, coculture fibroblast: HADF | 0.9563 | 0.926 | 0.858 | 0.842 | 0.829 | 0.787 | 0.748 | 0.719 | 0.678
100 µM, coculture fibroblast: HCFa | 0.914 | 0.84 | 0.799 | 0.736 | 0.695 | 0.67 | 0.646 | 0.622 | 0.587
100 µM, coculture fibroblast: HCPF | 0.9 | 0.885 | 0.811 | 0.761 | 0.724 | 0.677 | 0.642 | 0.606 | 0.582
100 µM, coculture fibroblast: HHSteC | 0.8907 | 0.811 | 0.775 | 0.7006 | 0.65924 | 0.623 | 0.60203 | 0.5791 | 0.5599
100 µM, coculture fibroblast: HMF | 0.845 | 0.9021 | 0.804 | 0.73 | 0.692 | 0.643 | 0.614 | 0.592 | 0.553
100 µM, coculture fibroblast: HPFa | 0.9437 | 0.859 | 0.857 | 0.782 | 0.758 | 0.718 | 0.699 | 0.677 | 0.638
100 µM, coculture fibroblast: HUF | 0.8859 | 0.7953 | 0.763 | 0.691 | 0.634 | 0.594 | 0.58 | 0.559 | 0.54
100 µM, coculture fibroblast: Hs5 | 0.861 | 0.865 | 0.804 | 0.7418 | 0.707 | 0.672 | 0.644 | 0.623 | 0.598
100 µM, coculture fibroblast: Hs27A | 0.881 | 0.764 | 0.819 | 0.858 | 0.788 | 0.817 | 0.784 | 0.893 | 0.847
100 µM, coculture fibroblast: Hs343T | 0.888 | 0.841 | 0.746 | 0.681 | 0.632 | 0.583 | 0.538 | 0.511 | 0.48
100 µM, coculture fibroblast: WS1 | 0.8309 | 0.781 | 0.737 | 0.673 | 0.616 | 0.589 | 0.559 | 0.516 | 0.493

Values are relative to the signal before dosing, not to a vehicle control; the signal also falls without drug.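 Fibroblast labels denote human fibroblasts, mainly primary ones from uterus (C12385, HUF), lung (H6013), bone (Hs27A), adrenal (HADF) and skin (WS1), plus mammary HMF and breast cancer-associated Hs343T. Cancer cells are basal-like or mesenchymal-like triple-negative breast cancer lines. A hit is a response shift exceeding 3x replicate standard deviation. The tissue of the other fibroblasts is not given here.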
